Laboratory results published in paper PMC3230590, “Structure of the Bro1 Domain Protein BROX and Functional Analyses of the ALIX Bro1 Domain in HIV-1 Budding” (PLoS ONE, 2011).

The chains behind the UniProt entries cited, without tags or fusion partners. Where a name states a change or a piece, a line headed by the entry shows the natural chain unless it says otherwise.
UniProt Q5VW32: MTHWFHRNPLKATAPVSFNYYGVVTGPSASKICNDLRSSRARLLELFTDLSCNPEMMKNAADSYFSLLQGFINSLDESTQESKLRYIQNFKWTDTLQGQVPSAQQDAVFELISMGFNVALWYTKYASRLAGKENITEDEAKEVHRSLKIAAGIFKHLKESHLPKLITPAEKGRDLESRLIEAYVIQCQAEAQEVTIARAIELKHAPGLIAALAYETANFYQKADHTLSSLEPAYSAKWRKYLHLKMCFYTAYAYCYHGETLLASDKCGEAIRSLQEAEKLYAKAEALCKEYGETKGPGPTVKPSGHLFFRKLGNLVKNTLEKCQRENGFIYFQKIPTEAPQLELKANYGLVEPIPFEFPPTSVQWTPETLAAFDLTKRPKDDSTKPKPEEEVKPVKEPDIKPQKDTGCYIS

Target: T1, GST-CHMP4B(205-224) (UniProt Q9H444)
T1 sequence: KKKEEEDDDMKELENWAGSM
Assay: SPR; Biacore 2000; CM5 chip with amine-coupled anti-GST antibody capturing GST-CHMP4B(205-224) or GST alone from crude E. coli lysates; pure BROX proteins injected in triplicate, 1.5-fold dilution series from 400 µM; equilibrium responses fit to 1:1 isotherms; both purified

| Substance | binding |
| --- | --- |
| BROX K141E (from UniProt Q5VW32) | no binding (tested: 400 µM) |
| BROX L212D (from UniProt Q5VW32) | no binding (tested: 400 µM) |

These are yes or no findings as the source states them, for the method shown. Tags and fused reporters may be left off the sequences shown.
